From the supplement of paper PMC10735217 come the findings set out here.

Structures can show the parent of a compound that is named as a salt. The list shows a part of the results. Single values are uncertain here, since repeats match poorly.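 Human kidney-derived cells stably carry a construct in which eight TEAD-binding elements drive luciferase, measured by luminescence in a drug-repurposing library screen. A hit is any compound whose signal exceeds the plate mean by more than five robust Z scores.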

The test system of this assay is HEK293A TEAD-LUC reporter. The experiment in a line: TEAD-luciferase reporter activity (YAP activation), robust Z score vs plate; higher = stronger YAP/TEAD activation. As to conditions: 24 h. A general note: In a reporter assay the amount or activity of a reporter protein is the signal.

Take `NC(=O)c1[nH]nc([C@@H]2O[C@H](CO)[C@@H](O)[C@H]2O)c1O`: the TEAD-luciferase reporter activity reads like this: (compound concentration: 200 nM) inactive: -0.513; (compound concentration: 2 uM) inactive: -0.371; (compound concentration: 10 uM) inactive: -0.48.

In the case of `C[N+](C)(C)C[C@@H](O)CC(=O)[O-]` [levocarnitine, Ajinomoto], the TEAD-luciferase reporter activity was inactive: -0.599 (compound concentration: 200 nM), inactive: 0.186 (compound concentration: 2 uM) and inactive: -0.789 (compound concentration: 10 uM).

With `CN(C)CCNC(=O)c1cccc2cccnc12`, the TEAD-luciferase reporter activity is inactive: 4 (compound concentration: 200 nM), inactive: 2.82 (compound concentration: 2 uM) and inactive: -0.116 (compound concentration: 10 uM).

`CCc1cc(OCc2ccc3ccccc3n2)cc2c3c([nH]c12)C(CC)(CC(=O)O)OCC3` (stereo not given): the TEAD-luciferase reporter activity was inactive: -0.0301 (compound concentration: 200 nM), inactive: -0.697 (compound concentration: 2 uM) and inactive: -0.374 (compound concentration: 10 uM).

As to `CC(SC(=O)c1ccccc1)C(=O)NCC(=O)OCc1cccc(COC(=O)CNC(=O)C(C)SC(=O)c2ccccc2)n1` (stereo not given) [dibenzothioline], the TEAD-luciferase reporter activity was inactive: 2.87 (compound concentration: 200 nM), inactive: -1.01 (compound concentration: 2 uM) and inactive: -1.07 (compound concentration: 10 uM).

Take `O=C(C1CCCN1C(=O)C1CC1)N1CCC(c2ccccc2)CC1` (stereo not given): the TEAD-luciferase reporter activity is, setting by setting: (compound concentration: 200 nM) inactive: -2.23; (compound concentration: 10 uM) inactive: -1.94.

As for `NC[C@@H]1O[C@H](O[C@H]2[C@@H](O)[C@H](O[C@@H]3[C@@H](O)[C@H](N)C[C@H](N)[C@H]3O[C@H]3O[C@H](CO)[C@@H](O)[C@H](O)[C@H]3N)O[C@@H]2CO)[C@H](N)[C@@H](O)[C@@H]1O` [Paromomycin (sulfate)], the TEAD-luciferase reporter activity (compound concentration: 2 uM) is inactive: -0.477.

Take `NC[C@@H]1O[C@H](O[C@H]2[C@@H](O)[C@H](O[C@@H]3[C@@H](O)[C@H](N)C[C@H](N)[C@H]3O[C@H]3O[C@H](CO)[C@@H](O)[C@H](O)[C@H]3N)O[C@@H]2CO)[C@H](N)[C@@H](O)[C@@H]1O` [Paromomycin Sulfate]: the TEAD-luciferase reporter activity (compound concentration: 200 nM) was inactive: -0.616 and the TEAD-luciferase reporter activity (compound concentration: 10 uM) is inactive: -0.916.

As for `C[N+]1(C)CCC(OC(=O)C(O)(c2ccccc2)C2CCCC2)C1` (stereo not given), the TEAD-luciferase reporter activity is inactive: -0.825 (compound concentration: 200 nM) and inactive: 2.74 (compound concentration: 10 uM).

Turning to `C[N+]1(C)CCC(OC(=O)C(O)(c2ccccc2)C2CCCC2)C1` (stereo not given) [glycopyrrolate, Chiesi], the TEAD-luciferase reporter activity (compound concentration: 2 uM) was inactive: 2.01.

`O=c1cc(-c2ccccc2)oc2cc(O)cc(O)c12`: the TEAD-luciferase reporter activity runs as follows: (compound concentration: 200 nM) inactive: 0.796; (compound concentration: 10 uM) inactive: 2.58.

Turning to `O=c1cc(-c2ccccc2)oc2cc(O)cc(O)c12` [5,7-Dihydroxyflavone], under “compound concentration: 2 uM”, the TEAD-luciferase reporter activity is inactive: 1.11.

Take `CCOCCn1nc(C(=O)NS(=O)(=O)c2ccc(C)cc2)c2nc(N(C)CC)nc(Nc3cc(C)ccn3)c21`: the TEAD-luciferase reporter activity reads like this: (compound concentration: 200 nM) inactive: -0.646; (compound concentration: 2 uM) inactive: -1.53; (compound concentration: 10 uM) inactive: -0.371.

For the molecule `CC(=O)SC[C@H](Cc1ccc2c(c1)OCO2)C(=O)N[C@@H](C)C(=O)OCc1ccccc1` [Fasidotril], the TEAD-luciferase reporter activity (compound concentration: 200 nM) was inactive: -0.256, the TEAD-luciferase reporter activity (compound concentration: 2 uM) was inactive: 0.38 and the TEAD-luciferase reporter activity (compound concentration: 10 uM) is inactive: 2.38.

As to `Cc1c(C(=O)Nc2ccc(S(C)(=O)=O)cc2)cn(CCO)c1-c1ccccc1C(F)(F)F` [Esaxere], the TEAD-luciferase reporter activity (compound concentration: 200 nM) was inactive: -1.18, the TEAD-luciferase reporter activity (compound concentration: 2 uM) is inactive: -0.146 and the TEAD-luciferase reporter activity (compound concentration: 10 uM) was inactive: 0.123.

On to `Cc1nc(Nc2ccc(F)cc2)nc(N2CCc3ccccc3C2C)c1C` (stereo not given) [revaprazan], for which the TEAD-luciferase reporter activity reads like this: (compound concentration: 200 nM) inactive: -0.972; (compound concentration: 2 uM) inactive: -1.65; (compound concentration: 10 uM) inactive: -1.69.

With `CN[C@H](Cc1ccccc1)C(=O)N1CCC[C@H]1C(=O)NC[C@H]1CC[C@H](N)CC1`, the TEAD-luciferase reporter activity runs as follows: (compound concentration: 200 nM) inactive: 0.611; (compound concentration: 2 uM) inactive: -1.02; (compound concentration: 10 uM) inactive: 0.484.

As for `COc1cccc(-c2c(C)n(Cc3c(F)cccc3C(F)(F)F)c(=O)n(C[C@H](NCCCC(=O)O)c3ccccc3)c2=O)c1F`, the TEAD-luciferase reporter activity is inactive: 0.811 (compound concentration: 200 nM), inactive: 2.47 (compound concentration: 2 uM) and inactive: 0.594 (compound concentration: 10 uM).

`COc1ccc(CC(=O)N2CCC(C(=O)N3CCC(c4ccccc4)CC3)CC2)cc1`: the TEAD-luciferase reporter activity was inactive: 1.93 (compound concentration: 200 nM) and inactive: 1.35 (compound concentration: 10 uM).

Turning to `CC[C@H]1OC(=O)[C@H](C)[C@@H](O[C@H]2C[C@@](C)(OC)[C@@H](O)[C@H](C)O2)[C@H](C)[C@@H](O[C@@H]2OC(C)C[C@H](N(C)C)[C@H]2O)[C@](C)(O)C[C@@H](C)C(=O)[C@H](C)[C@@H](O)[C@]1(C)O` (stereo not given in full) [erythromycin, Andromaco], the TEAD-luciferase reporter activity was inactive: -1.61 (compound concentration: 200 nM), inactive: -1.58 (compound concentration: 2 uM) and inactive: -0.218 (compound concentration: 10 uM).

Turning to `CN1CCCCC1C(C)(C)OC(=O)C(c1ccccc1)c1ccccc1` (stereo not given), the TEAD-luciferase reporter activity is inactive: -1.47 (compound concentration: 200 nM), inactive: -2.19 (compound concentration: 2 uM) and inactive: -0.825 (compound concentration: 10 uM).

Consider `CCn1c(=O)c2ccccc2n(Cc2ccc([N+](=O)[O-])cc2)c1=O`, for which the TEAD-luciferase reporter activity reads like this: (compound concentration: 200 nM) inactive: -0.291; (compound concentration: 2 uM) inactive: 0.606; (compound concentration: 10 uM) inactive: -0.854.

Consider `CC(C)(C)C(=O)Nc1ccc(S(=O)(=O)Nc2ccccc2)cc1`, for which the TEAD-luciferase reporter activity is inactive: -0.507 (compound concentration: 200 nM), inactive: -0.793 (compound concentration: 2 uM) and inactive: -0.54 (compound concentration: 10 uM).

In the case of `CN(CC(=O)N1CCOCC1)Cc1c(Cl)cccc1NC(=O)c1ccccc1`, the TEAD-luciferase reporter activity (compound concentration: 200 nM) was inactive: -0.614, the TEAD-luciferase reporter activity (compound concentration: 2 uM) is inactive: -0.932 and the TEAD-luciferase reporter activity (compound concentration: 10 uM) was inactive: 0.761.

Take `Cc1cc(C)c2c3ccccc3n(Cc3ccc([C@H](C(=O)N[C@@H](CO)c4ccccc4)C4CCCC4)cc3)c2n1` [Implitapide]: the TEAD-luciferase reporter activity runs as follows: (compound concentration: 200 nM) inactive: 0.218; (compound concentration: 2 uM) inactive: -0.516; (compound concentration: 10 uM) inactive: 0.495.

Consider `CCCCCCCCNC(=N)NC(=N)NCc1ccc(Cl)c(Cl)c1`, for which the TEAD-luciferase reporter activity (compound concentration: 200 nM) is inactive: -0.768, the TEAD-luciferase reporter activity (compound concentration: 2 uM) was inactive: 1.23 and the TEAD-luciferase reporter activity (compound concentration: 10 uM) was inactive: 1.52.

As to `Nc1nc(-c2ccc(NC(=O)CN(Cc3ccccc3)C(=O)c3ccncc3)cc2)cs1`, the TEAD-luciferase reporter activity runs as follows: (compound concentration: 200 nM) inactive: -0.823; (compound concentration: 2 uM) inactive: 0.0332; (compound concentration: 10 uM) inactive: 3.25.
